Laboratory results published in the supplement of paper PMC10849652.
Some of the results follow.

Sequences of proteins named here, by UniProt entry; tags and fusion partners are left off. A change or cut given only in a name is not applied to a line headed by its entry.
UniProt P61803: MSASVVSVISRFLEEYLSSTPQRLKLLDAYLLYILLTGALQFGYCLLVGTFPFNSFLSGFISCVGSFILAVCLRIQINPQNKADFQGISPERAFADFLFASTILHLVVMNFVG
UniProt P50461: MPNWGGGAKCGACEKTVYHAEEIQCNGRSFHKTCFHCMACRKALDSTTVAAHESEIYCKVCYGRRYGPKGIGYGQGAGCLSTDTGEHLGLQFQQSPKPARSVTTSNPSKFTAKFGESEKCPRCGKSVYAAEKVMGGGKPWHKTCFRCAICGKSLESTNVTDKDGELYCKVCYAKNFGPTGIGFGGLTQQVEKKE
UniProt P07108: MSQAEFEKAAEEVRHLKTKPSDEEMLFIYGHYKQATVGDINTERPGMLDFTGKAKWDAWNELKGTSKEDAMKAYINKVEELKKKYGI
UniProt Q9NTM9: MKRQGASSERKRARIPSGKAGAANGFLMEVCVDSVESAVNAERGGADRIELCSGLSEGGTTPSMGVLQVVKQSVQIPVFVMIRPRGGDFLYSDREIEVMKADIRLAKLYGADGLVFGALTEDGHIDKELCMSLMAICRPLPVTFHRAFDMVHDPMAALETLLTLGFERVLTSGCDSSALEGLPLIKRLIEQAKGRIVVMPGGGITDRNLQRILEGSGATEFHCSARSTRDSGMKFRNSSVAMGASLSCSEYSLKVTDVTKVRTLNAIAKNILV
UniProt Q9BQA9: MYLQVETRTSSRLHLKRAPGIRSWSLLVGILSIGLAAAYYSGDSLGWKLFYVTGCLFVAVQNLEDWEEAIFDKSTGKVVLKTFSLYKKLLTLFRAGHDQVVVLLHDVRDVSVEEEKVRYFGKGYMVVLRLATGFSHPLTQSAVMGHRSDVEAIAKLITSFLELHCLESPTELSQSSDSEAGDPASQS
UniProt Q5TAQ9: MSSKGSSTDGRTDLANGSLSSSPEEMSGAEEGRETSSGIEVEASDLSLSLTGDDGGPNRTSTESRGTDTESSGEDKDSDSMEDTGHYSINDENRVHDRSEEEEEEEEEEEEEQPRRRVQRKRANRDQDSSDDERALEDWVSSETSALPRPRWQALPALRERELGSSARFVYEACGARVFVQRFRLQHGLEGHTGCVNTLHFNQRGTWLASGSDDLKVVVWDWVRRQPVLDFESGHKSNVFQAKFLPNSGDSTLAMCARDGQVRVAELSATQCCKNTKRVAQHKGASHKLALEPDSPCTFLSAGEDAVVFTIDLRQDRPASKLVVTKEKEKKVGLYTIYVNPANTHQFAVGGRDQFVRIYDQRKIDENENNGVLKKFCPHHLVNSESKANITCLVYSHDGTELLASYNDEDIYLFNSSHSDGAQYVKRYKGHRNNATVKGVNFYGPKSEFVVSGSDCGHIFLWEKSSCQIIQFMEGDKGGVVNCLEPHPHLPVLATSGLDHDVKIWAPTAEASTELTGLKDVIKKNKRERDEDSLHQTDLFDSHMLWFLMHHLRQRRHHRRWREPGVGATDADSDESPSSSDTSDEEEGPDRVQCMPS
UniProt P00167, whole entry, looked up: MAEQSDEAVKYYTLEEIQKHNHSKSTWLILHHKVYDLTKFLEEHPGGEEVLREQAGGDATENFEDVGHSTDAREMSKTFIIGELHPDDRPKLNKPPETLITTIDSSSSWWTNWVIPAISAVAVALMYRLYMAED
UniProt Q9NV06: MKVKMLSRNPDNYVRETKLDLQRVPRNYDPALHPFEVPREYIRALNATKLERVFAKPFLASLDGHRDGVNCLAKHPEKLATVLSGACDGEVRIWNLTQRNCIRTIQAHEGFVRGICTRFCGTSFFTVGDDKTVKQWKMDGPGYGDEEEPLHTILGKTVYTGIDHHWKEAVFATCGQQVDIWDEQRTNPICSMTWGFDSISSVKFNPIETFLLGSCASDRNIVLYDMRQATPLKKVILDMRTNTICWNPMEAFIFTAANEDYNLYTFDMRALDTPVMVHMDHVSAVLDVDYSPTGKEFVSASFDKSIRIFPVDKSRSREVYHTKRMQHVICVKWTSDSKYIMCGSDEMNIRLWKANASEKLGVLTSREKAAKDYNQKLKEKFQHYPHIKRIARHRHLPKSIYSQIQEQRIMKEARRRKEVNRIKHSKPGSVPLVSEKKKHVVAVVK
UniProt Q9BTE1, whole entry, looked up: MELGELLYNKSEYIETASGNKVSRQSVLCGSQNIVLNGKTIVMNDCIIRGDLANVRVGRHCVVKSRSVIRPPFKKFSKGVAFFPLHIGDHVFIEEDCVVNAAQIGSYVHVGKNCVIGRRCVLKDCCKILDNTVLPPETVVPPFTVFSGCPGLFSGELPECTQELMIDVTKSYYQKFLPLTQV
UniProt Q9Y6A2: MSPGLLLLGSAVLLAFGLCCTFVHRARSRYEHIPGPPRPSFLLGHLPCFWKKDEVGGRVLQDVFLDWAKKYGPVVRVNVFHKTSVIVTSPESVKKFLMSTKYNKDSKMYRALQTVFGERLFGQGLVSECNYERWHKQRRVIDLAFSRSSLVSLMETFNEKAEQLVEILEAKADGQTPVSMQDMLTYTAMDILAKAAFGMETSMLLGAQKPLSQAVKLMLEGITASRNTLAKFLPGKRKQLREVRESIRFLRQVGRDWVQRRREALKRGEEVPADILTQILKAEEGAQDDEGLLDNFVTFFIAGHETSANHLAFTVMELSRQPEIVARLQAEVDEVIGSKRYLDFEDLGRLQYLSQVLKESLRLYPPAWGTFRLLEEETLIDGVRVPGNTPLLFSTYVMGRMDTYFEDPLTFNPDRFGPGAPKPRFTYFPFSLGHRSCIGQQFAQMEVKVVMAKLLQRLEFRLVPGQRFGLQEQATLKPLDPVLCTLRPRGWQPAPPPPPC
UniProt Q8WUE5: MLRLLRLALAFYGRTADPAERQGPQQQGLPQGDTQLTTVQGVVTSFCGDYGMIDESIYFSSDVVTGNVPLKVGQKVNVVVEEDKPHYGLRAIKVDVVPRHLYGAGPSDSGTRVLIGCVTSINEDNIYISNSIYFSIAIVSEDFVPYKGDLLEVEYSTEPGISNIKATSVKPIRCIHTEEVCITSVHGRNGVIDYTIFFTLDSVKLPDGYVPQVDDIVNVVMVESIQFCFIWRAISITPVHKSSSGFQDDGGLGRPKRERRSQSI
UniProt P39880: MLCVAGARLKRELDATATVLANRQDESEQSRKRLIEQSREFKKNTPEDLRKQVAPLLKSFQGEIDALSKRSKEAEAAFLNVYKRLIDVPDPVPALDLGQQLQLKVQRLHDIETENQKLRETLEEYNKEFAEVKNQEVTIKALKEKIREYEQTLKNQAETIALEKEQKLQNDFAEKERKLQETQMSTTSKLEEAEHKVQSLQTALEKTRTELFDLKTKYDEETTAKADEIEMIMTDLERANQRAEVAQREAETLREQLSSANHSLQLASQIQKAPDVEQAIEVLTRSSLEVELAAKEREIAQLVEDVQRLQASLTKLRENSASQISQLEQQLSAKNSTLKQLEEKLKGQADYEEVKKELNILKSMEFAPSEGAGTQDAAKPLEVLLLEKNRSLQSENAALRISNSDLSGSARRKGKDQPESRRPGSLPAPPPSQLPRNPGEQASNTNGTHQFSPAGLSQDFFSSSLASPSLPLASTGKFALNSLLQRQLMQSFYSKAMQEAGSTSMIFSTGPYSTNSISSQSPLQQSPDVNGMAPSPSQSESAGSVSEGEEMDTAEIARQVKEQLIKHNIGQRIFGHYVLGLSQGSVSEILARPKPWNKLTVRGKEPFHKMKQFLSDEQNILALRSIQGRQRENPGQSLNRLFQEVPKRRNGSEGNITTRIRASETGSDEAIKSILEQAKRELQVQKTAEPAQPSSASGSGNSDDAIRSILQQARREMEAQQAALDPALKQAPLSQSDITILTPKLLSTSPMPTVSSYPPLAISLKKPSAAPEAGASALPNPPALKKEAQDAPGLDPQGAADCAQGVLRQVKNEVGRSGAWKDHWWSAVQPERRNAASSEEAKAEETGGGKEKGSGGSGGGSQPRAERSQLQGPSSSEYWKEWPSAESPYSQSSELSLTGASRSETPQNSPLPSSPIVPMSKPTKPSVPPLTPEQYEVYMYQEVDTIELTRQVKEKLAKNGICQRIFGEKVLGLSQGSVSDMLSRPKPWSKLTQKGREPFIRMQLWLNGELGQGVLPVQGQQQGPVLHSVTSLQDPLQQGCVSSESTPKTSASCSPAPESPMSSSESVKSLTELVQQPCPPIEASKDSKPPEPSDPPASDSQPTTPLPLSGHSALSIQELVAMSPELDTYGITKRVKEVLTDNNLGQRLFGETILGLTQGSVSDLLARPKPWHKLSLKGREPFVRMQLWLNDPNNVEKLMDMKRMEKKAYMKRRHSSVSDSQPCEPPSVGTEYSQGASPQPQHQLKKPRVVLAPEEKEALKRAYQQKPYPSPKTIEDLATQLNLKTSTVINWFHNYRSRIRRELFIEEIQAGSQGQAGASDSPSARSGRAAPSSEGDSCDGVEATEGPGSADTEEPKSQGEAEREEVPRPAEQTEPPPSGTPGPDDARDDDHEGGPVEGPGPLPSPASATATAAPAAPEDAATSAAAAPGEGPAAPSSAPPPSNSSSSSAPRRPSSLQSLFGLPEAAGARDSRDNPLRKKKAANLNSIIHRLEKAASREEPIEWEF
UniProt O43310: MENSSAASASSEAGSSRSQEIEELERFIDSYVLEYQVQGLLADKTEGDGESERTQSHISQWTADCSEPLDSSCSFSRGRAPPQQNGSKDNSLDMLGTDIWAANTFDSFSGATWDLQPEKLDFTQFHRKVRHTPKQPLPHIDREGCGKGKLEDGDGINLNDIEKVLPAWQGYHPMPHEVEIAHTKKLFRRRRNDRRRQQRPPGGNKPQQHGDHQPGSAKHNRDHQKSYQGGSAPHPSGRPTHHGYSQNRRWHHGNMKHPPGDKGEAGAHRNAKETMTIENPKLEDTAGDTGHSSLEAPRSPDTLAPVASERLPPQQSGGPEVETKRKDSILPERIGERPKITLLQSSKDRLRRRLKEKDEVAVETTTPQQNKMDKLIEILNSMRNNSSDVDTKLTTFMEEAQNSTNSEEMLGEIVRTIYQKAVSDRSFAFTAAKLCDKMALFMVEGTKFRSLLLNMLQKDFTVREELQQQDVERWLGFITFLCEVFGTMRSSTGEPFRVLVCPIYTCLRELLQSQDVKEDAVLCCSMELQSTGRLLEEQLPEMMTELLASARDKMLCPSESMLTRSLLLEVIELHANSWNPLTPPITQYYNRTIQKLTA
UniProt Q13948: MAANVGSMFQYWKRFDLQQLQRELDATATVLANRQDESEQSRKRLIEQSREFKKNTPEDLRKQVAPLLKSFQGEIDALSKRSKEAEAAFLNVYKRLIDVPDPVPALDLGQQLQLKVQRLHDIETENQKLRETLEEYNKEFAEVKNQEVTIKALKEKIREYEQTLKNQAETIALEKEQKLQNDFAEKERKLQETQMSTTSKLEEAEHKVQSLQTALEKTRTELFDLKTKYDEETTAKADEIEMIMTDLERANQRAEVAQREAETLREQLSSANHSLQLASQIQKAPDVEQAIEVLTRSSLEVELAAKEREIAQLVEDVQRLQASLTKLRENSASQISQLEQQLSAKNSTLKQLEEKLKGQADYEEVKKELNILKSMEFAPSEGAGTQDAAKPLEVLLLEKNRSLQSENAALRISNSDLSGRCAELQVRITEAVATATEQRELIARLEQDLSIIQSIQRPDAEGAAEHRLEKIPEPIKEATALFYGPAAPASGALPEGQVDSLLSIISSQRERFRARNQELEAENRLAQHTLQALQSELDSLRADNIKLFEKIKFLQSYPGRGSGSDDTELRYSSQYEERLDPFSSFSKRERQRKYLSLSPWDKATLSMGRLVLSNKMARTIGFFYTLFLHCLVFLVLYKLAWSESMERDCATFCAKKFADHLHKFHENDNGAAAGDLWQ
UniProt Q9UHQ9: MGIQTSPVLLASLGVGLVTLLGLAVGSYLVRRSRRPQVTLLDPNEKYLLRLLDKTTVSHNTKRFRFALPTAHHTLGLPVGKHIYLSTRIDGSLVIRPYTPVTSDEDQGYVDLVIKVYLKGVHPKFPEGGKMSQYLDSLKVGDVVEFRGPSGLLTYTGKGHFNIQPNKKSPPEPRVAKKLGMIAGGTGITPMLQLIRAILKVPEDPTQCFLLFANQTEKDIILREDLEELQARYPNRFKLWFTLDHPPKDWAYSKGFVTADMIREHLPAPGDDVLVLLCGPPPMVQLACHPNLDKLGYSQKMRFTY
UniProt Q9H1C7: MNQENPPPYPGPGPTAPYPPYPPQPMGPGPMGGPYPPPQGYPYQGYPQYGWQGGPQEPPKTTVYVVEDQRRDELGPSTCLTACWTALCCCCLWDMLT
UniProt Q9GZU7: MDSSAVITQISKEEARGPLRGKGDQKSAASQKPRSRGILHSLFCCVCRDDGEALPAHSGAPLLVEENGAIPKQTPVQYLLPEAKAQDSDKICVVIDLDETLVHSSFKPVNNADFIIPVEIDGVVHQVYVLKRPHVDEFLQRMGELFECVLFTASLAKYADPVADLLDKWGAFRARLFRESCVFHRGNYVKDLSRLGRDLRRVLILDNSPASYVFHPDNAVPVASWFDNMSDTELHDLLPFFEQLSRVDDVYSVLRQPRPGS
UniProt Q96DE9: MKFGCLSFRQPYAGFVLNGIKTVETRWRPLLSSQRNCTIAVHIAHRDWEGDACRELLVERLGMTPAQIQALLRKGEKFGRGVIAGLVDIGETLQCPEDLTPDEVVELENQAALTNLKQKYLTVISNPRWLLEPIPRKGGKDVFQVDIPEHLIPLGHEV

What was measured:
Test in all cases: log2 fold change, soluble protein after heating vs DMSO (PISA); higher = thermal stabilisation; K562 cells, 10 uM, 30 min; active = over 0.2 and 3.5 SD of the protein, either way, in both replicates (recomputed)
bafetinib = compound: Cc1ccc(NC(=O)c2ccc(CN3CC[C@H](N(C)C)C3)c(C(F)(F)F)c2)cc1Nc1nccc(-c2cncnc2)n1 [bafetinib]
How it was run: (§1)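 Thermal stability values are relative to control samples and come from duplicates. They are expressed as log2 fold changes. For measurement, K562 cells (2×10^6 cells/mL) received 10 μM compound for 30 min, and aliquots were heated for 3 min over 48°C-58°C, pooled, and extracted at 4°C in PBS with 0.5% NP-40. Soluble protein, the supernatant after 21,000xg for 90 min, was quantified by TMTpro 16plex LC-MS/MS with equalised channel sums.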

nilotinib = compound: Cc1cn(-c2cc(NC(=O)c3ccc(C)c(Nc4nccc(-c5cccnc5)n4)c3)cc(C(F)(F)F)c2)cn1 [nilotinib]
How it was run: as §1

[1] = compound: Cc1nc(Nc2n[nH]c3c2CN(C(=O)N[C@H](CN(C)C)c2ccccc2)C3(C)C)c2sccc2n1
How it was run: as §1

dasatinib = compound: Cc1nc(Nc2ncc(C(=O)Nc3c(C)cccc3Cl)s2)cc(N2CCN(CCO)CC2)n1 [dasatinib]
How it was run: as §1

[2] = compound: Cc1ncc(-c2ccnc(Nc3ccc(S(C)(=O)=O)cc3)n2)n1C(C)C
How it was run: as §1

[3] = compound: Cn1cc(-c2ccc3c(c2)CCN3C(=O)Cc2cccc(C(F)(F)F)c2)c2c(N)ncnc21
How it was run: as §1

[4] = compound: Cn1cc(-c2ccc3nnc(C(F)(F)c4ccc5ncccc5c4)n3n2)cn1
How it was run: as §1

tipifarnib = compound: Cn1cncc1[C@@](N)(c1ccc(Cl)cc1)c1ccc2c(c1)c(-c1cccc(Cl)c1)cc(=O)n2C [tipifarnib]
How it was run: as §1

mubritinib = compound: FC(F)(F)c1ccc(/C=C/c2nc(COc3ccc(CCCCn4ccnn4)cc3)co2)cc1 [mubritinib]
How it was run: as §1

[5] = compound: Cc1cccc(CC(=O)N2CCc3c2ccc(-c2cn(C)c4ncnc(N)c24)c3F)n1
How it was run: as §1

Target | log2 fold change (bafetinib) | log2 fold change (nilotinib) | log2 fold change [1] | log2 fold change (dasatinib) | log2 fold change [2] | log2 fold change [3] | log2 fold change [4] | log2 fold change (tipifarnib) | log2 fold change (mubritinib) | log2 fold change [5]
DCAF15 (UniProt Q66K64) | inactive: -0.06 | inactive: -0.041 | inactive: 0.039 | inactive: 0.005 | inactive: 0.025 | inactive: 0.308 | inactive: 0.043 | inactive: -0.045 | inactive: 0.159 | –
DAD1 (UniProt P61803) | inactive: -0.094 | inactive: 0.008 | inactive: -0.156 | inactive: 0.064 | inactive: 0.073 | inactive: 0.032 | – | inactive: 0.09 | inactive: -0.231 | –
CYP2S1 isoform 2 (UniProt Q96SQ9) | inactive: 0.166 | – | – | inactive: 0.137 | – | inactive: 0.103 | inactive: -0.034 | – | inactive: 0.206 | inactive: 0.137
CTNNB1 (UniProt P35222) | inactive: 0.026 | inactive: -0.056 | inactive: 0.205 | inactive: -0.149 | active: 0.858 | inactive: -0.004 | inactive: -0.021 | inactive: -0.115 | inactive: 0.076 | inactive: 0.057
DAP3 (UniProt P51398) | inactive: 0.133 | inactive: -0.102 | inactive: 0.023 | inactive: -0.026 | inactive: -0.006 | inactive: -0.019 | inactive: 0.04 | inactive: -0.056 | inactive: 0.087 | inactive: 0.133
CYREN isoform 4 (UniProt Q9BWK5) | inactive: 0.026 | – | – | inactive: 0.18 | – | – | – | inactive: 0.054 | inactive: -0.064 | inactive: -0.076
DAAM2 (UniProt Q86T65) | inactive: -0.145 | inactive: -0.063 | inactive: -0.054 | inactive: -0.023 | inactive: 0.039 | – | inactive: 0.025 | – | – | –
CSRP3 (UniProt P50461) | inactive: -0.156 | inactive: 0.012 | inactive: -0.055 | – | inactive: -0.044 | inactive: 0.009 | inactive: 0.032 | inactive: -0.012 | inactive: 0.035 | inactive: -0.032
CTTN (UniProt Q14247) | inactive: -0.035 | inactive: 0.06 | inactive: 0.011 | inactive: 0.044 | inactive: 0.028 | inactive: 0.006 | inactive: -0.012 | inactive: 0.008 | inactive: 0.03 | inactive: -0.064
DBI isoform 5 (UniProt P07108) | inactive: -0.065 | inactive: 0.051 | inactive: -0.016 | inactive: 0.113 | inactive: 0 | inactive: 0.071 | inactive: 0.176 | inactive: 0.051 | inactive: 0.022 | inactive: -0.126
CUTC (UniProt Q9NTM9) | inactive: -0.015 | inactive: 0.035 | inactive: 0.053 | inactive: -0.022 | inactive: 0 | inactive: 0.031 | inactive: 0.066 | inactive: -0.012 | inactive: 0.051 | inactive: -0.011
CYBC1 (UniProt Q9BQA9) | inactive: -0.124 | inactive: -0.051 | inactive: -0.014 | inactive: 0.015 | inactive: -0.006 | inactive: 0.041 | inactive: 0.05 | inactive: -0.022 | inactive: 0.088 | inactive: -0.032
DCAF8 (UniProt Q5TAQ9) | inactive: -0.072 | inactive: -0.045 | inactive: 0.051 | inactive: -0.023 | inactive: -0.076 | inactive: 0.057 | inactive: -0.03 | inactive: -0.052 | inactive: 0.002 | inactive: -0.023
CYB5A (UniProt P00167) | inactive: -0.047 | inactive: 0.004 | inactive: -0.024 | inactive: -0.05 | inactive: 0.022 | – | inactive: 0.215 | inactive: 0.042 | inactive: 0.021 | inactive: -0.037
DCAF6 isoform 3 (UniProt Q58WW2) | inactive: -0.071 | inactive: 0.009 | inactive: 0.02 | inactive: 0.008 | inactive: -0.013 | inactive: -0.016 | inactive: 0.031 | inactive: 0.027 | inactive: 0.017 | inactive: 0.009
DCAF13 (UniProt Q9NV06) | inactive: 0.178 | inactive: 0.006 | inactive: 0.102 | inactive: 0.077 | inactive: -0.05 | inactive: -0.249 | inactive: -0.173 | inactive: 0.193 | inactive: -0.106 | inactive: 0

Single values from above:
Value for CYREN isoform 4 (UniProt Q9BWK5) under log2 fold change (tipifarnib): inactive: 0.054
Value for CYP2S1 isoform 2 (UniProt Q96SQ9) under log2 fold change [3]: inactive: 0.103

Some entries already given with just log2 fold change [4], log2 fold change [1] and log2 fold change [2]:
Target | log2 fold change [4] | log2 fold change [1] | log2 fold change [2]
CYBC1 (UniProt Q9BQA9) | inactive: 0.05 | inactive: -0.014 | inactive: -0.006
DCAF8 (UniProt Q5TAQ9) | inactive: -0.03 | inactive: 0.051 | inactive: -0.076

(further entries)

Target | log2 fold change (bafetinib) | log2 fold change (nilotinib) | log2 fold change [1] | log2 fold change (dasatinib) | log2 fold change [2] | log2 fold change [3] | log2 fold change [4] | log2 fold change (tipifarnib) | log2 fold change (mubritinib) | log2 fold change [5]
DCTN5 (UniProt Q9BTE1) | inactive: -0.035 | inactive: -0.012 | inactive: 0.032 | inactive: -0.027 | inactive: -0.03 | inactive: -0.013 | inactive: -0.004 | inactive: 0.02 | inactive: 0.015 | inactive: -0.019
CYP46A1 (UniProt Q9Y6A2) | inactive: -0.238 | – | – | inactive: 0.075 | – | inactive: -0.129 | inactive: 0.212 | inactive: 0.198 | inactive: 0.084 | inactive: -0.261
CT55 (UniProt Q8WUE5) | inactive: -0.119 | inactive: -0.038 | inactive: -0.062 | inactive: -0.007 | inactive: -0.023 | inactive: -0.056 | – | inactive: -0.12 | inactive: 0.013 | inactive: -0.024
CUX1 isoform 3 (UniProt P39880) | inactive: -0.054 | inactive: -0.008 | inactive: -0.06 | inactive: -0.016 | inactive: 0.044 | inactive: 0.023 | inactive: 0.08 | inactive: 0.046 | inactive: 0.037 | inactive: -0.032
CTIF isoform 2 (UniProt O43310) | inactive: -0.267 | inactive: -0.044 | inactive: 0.015 | inactive: 0.055 | inactive: 0.204 | inactive: 0.015 | inactive: 0.007 | inactive: -0.022 | inactive: 0.002 | inactive: 0.001
CUX1 isoform 2 (UniProt Q13948) | inactive: 0.051 | inactive: -0.001 | inactive: -0.029 | inactive: -0.084 | inactive: 0.078 | inactive: 0.072 | inactive: 0.063 | inactive: 0.062 | inactive: 0.007 | inactive: 0.042
CT45A5 (UniProt P0DMU8) | inactive: 0.116 | inactive: -0.069 | inactive: 0.066 | inactive: 0.075 | inactive: -0.008 | inactive: -0.09 | inactive: -0.136 | inactive: 0.092 | inactive: -0.111 | inactive: -0.039
CYC1 (UniProt P08574) | inactive: -0.031 | inactive: -0.01 | inactive: 0.094 | inactive: 0.02 | inactive: -0.027 | inactive: 0.024 | inactive: -0.003 | inactive: -0.075 | inactive: -0.024 | inactive: -0.019
CYP24A1 (UniProt Q07973) | inactive: 0.373 | inactive: 0.01 | inactive: 0.167 | inactive: 0.184 | inactive: -0.105 | – | inactive: -0.057 | inactive: 0.101 | inactive: -0.074 | inactive: -0.049
CTSH (UniProt P09668) | inactive: -0.071 | inactive: 0.166 | inactive: 0.03 | inactive: 0.084 | inactive: -0.041 | inactive: 0.055 | inactive: 0.056 | inactive: 0.09 | inactive: -0.063 | inactive: -0.034
CYB5R1 (UniProt Q9UHQ9) | inactive: -0.041 | inactive: -0.02 | inactive: 0.009 | inactive: -0.023 | inactive: -0.013 | inactive: 0.017 | inactive: 0.02 | inactive: 0.003 | inactive: 0.014 | inactive: -0.051
CYSTM1 (UniProt Q9H1C7) | inactive: -0.222 | inactive: 0.029 | inactive: -0.04 | inactive: 0.036 | inactive: -0.007 | inactive: 0.052 | inactive: -0.027 | inactive: 0.292 | inactive: 0.113 | –
CTDSP1 (UniProt Q9GZU7) | – | inactive: 0.14 | inactive: -0.084 | – | inactive: 0.026 | – | inactive: 0.142 | – | – | inactive: 0.058
CST4 (UniProt P01036) | inactive: 0.138 | inactive: -0.306 | inactive: 0.158 | – | inactive: 0.114 | inactive: 0.072 | – | – | inactive: 0.584 | –
CXorf40B (UniProt Q96DE9) | – | – | – | inactive: -0.16 | – | inactive: -0.023 | inactive: 0.11 | – | – | inactive: -0.011
